Among the data in publication PMC6668851 are binding values, retold here.

Assay [1] concerns the target T1, human UBIAD1 (G186R) fused with a TAP tag at the C terminus (Hs-UBIAD1-G186R-TAP) (human) (UniProt Q9Y5Z9).
T1 sequence: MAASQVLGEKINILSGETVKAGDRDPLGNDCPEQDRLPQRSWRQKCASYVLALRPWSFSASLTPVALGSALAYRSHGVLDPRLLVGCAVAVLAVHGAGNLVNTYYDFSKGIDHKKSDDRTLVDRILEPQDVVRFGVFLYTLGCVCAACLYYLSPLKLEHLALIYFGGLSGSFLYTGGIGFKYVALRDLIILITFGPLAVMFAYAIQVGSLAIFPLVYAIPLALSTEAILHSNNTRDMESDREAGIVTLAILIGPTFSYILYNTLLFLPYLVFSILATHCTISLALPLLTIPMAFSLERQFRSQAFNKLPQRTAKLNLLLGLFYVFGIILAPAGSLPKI
The experiment in a line: affinity purification with mass spectrometry; tandem affinity purification from HEK-293 stable cells: lysis in 1% digitonin, PBS, 5 mM EDTA, 5 mM EGTA; rabbit IgG agarose, TEV release, anti-Flag M2 agarose, 3x Flag peptide elution; tandem mass spectrometry.

Assay [2] deals with T2, human wild-type UBIAD1 fused with a TAP tag at the C terminus (Hs-UBIAD1-WT-TAP) (human) (UniProt Q9Y5Z9).
T2 sequence: T1 sequence with R186G
The description is as above.

Numbering of substitutions follows the chain as printed. Results are given in words; binding and its absence hold for the method and conditions named. In cells and extracts the contact can be indirect. Here binding means that the protein was enriched with, or labelled near, the bait; the list need not be complete. Sequences can lack the tags named with a protein.

As for “VCP/p97, endogenous in HEK-293 (from UniProt P55072 1-806)”, the binding result in assay [1] and in assay [2] was “binds” in each case.
